# Source: PubChem BioAssay AID504467 (National Center for Advancing Translational Sciences (NCATS), 2011)
# Out of some 330,000 compounds screened, about 7,700 (2.3%) were called active. This list was built around the results that the source calls inconclusive (neither active nor inactive); the mix of calls is not that of the screen. Calls follow the shape of the dose curve; as a rule, active = well fitted inhibition curve with a large enough effect; inconclusive = small, poorly fitted or top-dose-only effect, or effect the other way; inactive = flat fitted curve, though single readings scatter. A potency beside an inconclusive call is a rough fit, not a confirmed value.
# Test: qHTS screen for small molecules that inhibit ELG1-dependent DNA repair in human embryonic kidney (HEK293T) cells expressing luciferase-tagged ELG1; also: nearly all actives have a fitted effect of over 55% in size
# Details: HEK293T ELG1-luciferase reporter, luminescence, 16 h, DNA damage induced by 5-fluorouridine; activity change, negative = inhibition: at 46.1 µM (top of the series)
# In short: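 In this reporter screen, reduction of luminescence relative to DMSO vehicle indicated activity. Compounds and 5-fluorouridine were added together to 2,000 cells per well, incubated for 16 hr at 37 °C, then developed with ONE-Glo.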
# % is scaled to controls: 0 for no effect and ±100 for the full control effect; potency is read from the fitted curve at half-maximal effect.
SMILES,"activity change, negative = inhibition",Potency
Cc1ccc(S(=O)(=O)N/N=C/c2cccc(OC3CSC3)c2)cc1,inactive: 4.22%,
CCn1c(SCC(=O)NCc2ccco2)nc2c1c(=O)n(C)c(=O)n2C,inactive: -19.9%,
CC(C)C[C@H](N)c1nnc(SCC(=O)Nc2ccc(Br)cc2)o1,inactive: 14.6%,
CCOC(=O)C1CCCN(C(=O)c2ccc(C)c(S(=O)(=O)N3CCCCC3)c2)C1 (stereo not given),inactive: -20.4%,
O=C(c1cccs1)N(CCN1CCCCC1)CC1CCCN(C2CCCC2)C1 (stereo not given),,"inconclusive: 20.6 µM [activator, partial curve]"
Cc1csc(NC(=O)c2ccc3c(c2)OCO3)n1,,"inconclusive: 4.11 µM [activator, partial curve]"
O=S(=O)(c1ccc2c(c1)OCCO2)N1CCC(c2nc3ccc(Cl)cc3[nH]2)CC1,,active: 18.4 µM
CC(=O)c1c(C)nc2sc3c(=N)n(N)cnc3c2c1-c1ccc(Cl)cc1,,"inconclusive: 32.6 µM [inhibitor, single point]"
CN(C)C=Nc1ccccc1C1C=NNC1=O (stereo not given),inactive: 7.4%,
Nc1nc(-c2sc3nc4c(cc3c2N)CCCC4)nc(N2CCOCC2)n1,,active: 6.51 µM
CC(=O)/C(C=Nc1noc(C)c1Br)=C(\C)O,,"inconclusive: 5.8 µM [inhibitor, partial curve, poor fit]"
CN(Cc1ccccc1)S(=O)(=O)c1ccc(Cl)c(C(=O)NCCCN2CCOCC2)c1,inactive: 28.6%,
Cn1c2c(c(=O)c3ccccc31)CCCC2,inactive: 8.41%,
Cc1ccccc1NC(=O)CN(C)S(=O)(=O)c1ccc(-c2ccc(=O)[nH]n2)s1,,"inconclusive: 18.3 µM [inhibitor, partial curve]"
COc1ccc(CCN(C)c2ncnc3sccc23)cc1OC,,"inconclusive: 18.3 µM [inhibitor, single point]"
C=CCc1cccc([C@@H]2[C@@H](C)CC[C@H]3C(=O)N4[C@@H](c5cc(OC)c(OC)c(OC)c5)c5[nH]c6ccccc6c5C[C@H]4C(=O)N23)c1,inactive: -28.3%,
Cc1nn2cc(-c3ccccc3)nc2[nH]c1=O,,"inconclusive: 25.9 µM [activator, partial curve]"
CCOCCn1c(-c2ccc(OC)cc2)nc2ccccc21,,"inconclusive: 16.4 µM [activator, single point]"
OCC[C@@H]1C[C@H](O)[C@@H](O)[C@]2(Cc3ccccc3O2)O1,inactive: 1.73%,
O=C(c1ccc(S(=O)(=O)N2CCCCC2)cc1)N1CCN(Cc2ccc3c(c2)OCO3)CC1,,"inconclusive: 29.1 µM [inhibitor, single point]"
COCCCn1c(=O)/c(=C\c2cccc(OC)c2OC)s/c1=C(/C#N)C(=O)Nc1ccc(C(=O)O)cc1,,"inconclusive: 16.4 µM [inhibitor, partial curve]"
COc1ccccc1CNC(=O)[C@H](C)NC(=O)C1CCN(C(=O)[C@H](CCSC)NC(=O)OC(C)(C)C)CC1,inactive: 2.71%,
C=CCn1c(=O)/c(=C\c2ccccn2)s/c1=C(/C#N)C(=O)NCC1CCCO1 (stereo not given),inactive: -21.9%,

SMILES,"activity change, negative = inhibition",Potency
COCCNc1c2c(c(C#N)c3nc4ccccc4n13)CCCC2,,"inconclusive: 32.6 µM [inhibitor, single point]"
CNC(=O)c1[nH]cnc1C(=O)Nc1ccccc1C,,"inconclusive: 29.1 µM [activator, partial curve, poor fit]"
O=C1c2cccc3c(N4CCCCC4)ccc(c23)C(=O)N1c1ccccn1,inactive: 10.8%,
CC1CCCCN1C(=O)COC(=O)c1ccc(N2CCCC2=O)cc1 (stereo not given),,"inconclusive: 23.1 µM [activator, single point]"
O=C1C=C(c2ccccc2Oc2ccccc2)C[C@@H](c2ccc3c(c2)OCO3)C1,,active: 6.51 µM
Cc1ccc2nc(SCC(=O)NCc3ccco3)[nH]c2c1,,"inconclusive: 32.6 µM [activator, partial curve, poor fit]"
CC1OC(Nc2ccc(N=Nc3ccccc3)cc2)C(O)C(O)C1O (stereo not given),,"inconclusive: 16.4 µM [activator, single point]"
C[C@]12CCC(O)CC1CCC1C2CC[C@]2(C)C(c3cc(C(F)(F)F)n[nH]3)CCC12 (stereo not given in full),,"inconclusive: 25.9 µM [inhibitor, single point]"
Cc1ccc(C)c2c1cc(C)c1nnc(SCC(=O)Nc3cccc(C(=O)O)c3)n12,,"inconclusive: 20.6 µM [activator, partial curve, poor fit]"
Cn1nc(C(=O)OCC(=O)c2ccc(Br)cc2)c2ccccc2c1=O,inactive: 4.29%,
O=C1CN(C(=O)NCC(=O)N2CCCC2)c2ccccc2N1,inactive: 23.8%,
Cc1ccc(-c2nnc(Oc3cccc(C)c3)c3ccccc23)cc1,,"inconclusive: 20.6 µM [activator, partial curve]"
O=[N+]([O-])c1cc2c(cc1/C=N/Nc1nc(Nc3ccccc3)nc(N3CCCCC3)n1)OCO2,inactive: 5.63%,
COc1ccc(Sc2ncnc3onc(C)c23)cc1,,"inconclusive: 29.1 µM [inhibitor, single point]"
CCOC(=O)C1CCN(C(=O)C(C)Sc2nnc3ccccn23)CC1 (stereo not given),inactive: 20.9%,
COc1ccc(N2CCc3c(C)nc4c(OC)cccc4c32)cc1,,"inconclusive: 18.3 µM [inhibitor, partial curve]"
CC(C)(C)OC(=O)CNC(=O)c1[nH]cnc1C(=O)NC1CCN(C(=O)OC(C)(C)C)CC1,,"inconclusive: 18.3 µM [inhibitor, single point]"
CC(C)c1cccc(C(C)C)c1NC(=O)COC(=O)C1=COCCO1,inactive: -12.7%,
COc1ccc(C(C)(C)C)cc1NC(=O)C1=CC=CN2CCS(=O)(=O)N=C12,,"inconclusive: 7.3 µM [inhibitor, full curve, poor fit]"
CC1CCCCN1C(=O)COC(=O)c1n[nH]c2ccccc12 (stereo not given),,"inconclusive: 18.4 µM [activator, partial curve]"
Cc1nn(-c2ccccc2)c(Cl)c1CN(C(=O)CCl)c1cccc2ccccc12,,"inconclusive: 23.1 µM [inhibitor, single point]"
NS(=O)(=O)c1cccc(NC(=O)COC(=O)/C(=C/c2cccs2)c2cccs2)c1,,"inconclusive: 9.2 µM [inhibitor, partial curve, poor fit]"

# Copied from the results shown, three compounds:
SMILES,"activity change, negative = inhibition",Potency
Cc1ccc(C)c2c1cc(C)c1nnc(SCC(=O)Nc3cccc(C(=O)O)c3)n12,,"inconclusive: 20.6 µM [activator, partial curve, poor fit]"
Cn1nc(C(=O)OCC(=O)c2ccc(Br)cc2)c2ccccc2c1=O,inactive: 4.29%,
O=C1CN(C(=O)NCC(=O)N2CCCC2)c2ccccc2N1,inactive: 23.8%,
